Measurements as given in patent publication US20130303562A1, “CHEMICAL AND RNAI SUPPRESSORS OF NEUROTOXICITY IN HUNTINGTON'S DISEASE” (priority 2010, published 2013).
At least one compound was matched to its structure with a doubt left.

What was measured:
[1] = test system: HD larvae (Elav^c155-GAL4; UAS-Htt-Q138/+); assay: In vivo rescue: viability of HD larvae after 5-day drug dosing in liquid culture; design: species or system Drosophila; details: larvae reared in liquid culture, 5-day dosing, compared to DMSO-treated controls
Description: In vivo Rescue studies: For small molecule in vivo rescue studies, Elav^c155; UAS-Htt-Q138-mRFP^1, UAS-mCD8-GFP/+1st instar larvae were collected en-masse and dispensed into liquid yeast media (10 larvae/well) containing therapeutic agents at three different concentrations as described in the results (n=8 replicas/concentration). Cultures were reared at 21° C. and larval viability was assessed after 5 days and the mean number of living Htt138Q larvae (i.e. GFP^+, Htt138QmRFP^+, and mobile) was tabulated, and expressed as a percentage of total larvae/well. For genetic rescue studies with lkb1, two Htt138Q strains were utilized: a strong expressing line, UAS-Htt138QmRFP^1 which is pharate lethal when crossed to Elav^c155, and a weaker expressing line, UAS-Htt138QmRFP^2 which survives to adulthood and is viable for a number of weeks. Using the strong line, pharate lethality at 25° C. was calculated after lkb1 (lkb1^4B1-11 and lkb1^4A4-2 alleles) was introduced into an Elav^c155, UAS-Htt/+background. Lkb1^4B1-11 is a premature truncation allele (Q98>Stop), and lkb1^4A4-2 is an EMS null allele (589 b.p. deletion removing 150 b.p. of the 5′ UTR, the start codon and the beginning of the open reading frame). For Top1 in vivo analysis, Elav^c155, Top^112 recombinants were generated and crossed to UAS-Htt138QmRFP^1. […]

[2] = test system: Htt-Q138 expressing Drosophila primary neural cultures; assay: Morphological analysis of small-molecule treated Htt-Q138 primary neural cultures versus Htt-Q15 controls; type: cell-based; details: compared with Htt-Q15 controls
Description: Primary Cell Culture. Elav^c155-GAL4 virgins were collected en-masse and crossed to either UAS-Htt-Q138-mRFP^1, UAS-mCD8-GFP or UAS-HttQ15-mRFP^1, UAS-mCD8-GFP males to generate embryos for primary culture preparation.
Compound screening: Primary cultures were re-suspended directly in Shields and Sang M3 media (Sigma) supplemented with 10 U/mL penicillin, 10 μg/mL streptomycin, 200 ng/mL insulin, and 5% fetal bovine serum. […] The neuroblast density was 18,500 cells/well. The primary screen was carried out in duplicate and hits were validated with 12 additional replicate wells. […]
Digital Image Analysis of High Content Screening Data Sets: Neuronal morphological analysis and Htt aggregate quantification for automated microscopy images was performed as previously described (Schulte et al., Wu et al.). In brief, Htt-Q138 aggregates were quantified as the total number of pixels/image with an intensity higher than an empirically set threshold. […] To quantify neuronal morphologies, cell body clusters (neuromeres) and neurites were extracted from images using our custom algorithms (Wu et al.). […] Neurite segment lengths were similarly clustered into three groups (short, medium, and long) using the K-means method and then quantified. […] Mean neuromere area and neurite length for each image were also calculated to give a total of eight morphological metrics for image morphology quantification. […]

CO[C@H]1C[C@@H]2CC[C@@H](C)[C@@](O)(O2)C(=O)C(=O)N2CCCC[C@H]2C(=O)O[C@H]([C@H](C)C[C@@H]2CC[C@@H](O)[C@H](OC)C2)CC(=O)[C@H](C)/C=C(\C)[C@@H](O)[C@@H](OC)C(=O)[C@H](C)C[C@H](C)/C=C/C=C/C=C/1C [Rapamycin]
Viability of Htt-Q138 expressing larvae / rescue of Htt-Q138 lethality [1]: enhanced viability of Htt-Q138^1 expressing larvae reared in liquid culture in a dose-dependent fashion
Morphology profiles of Q138 expressing neurons (effect in words) [2]: none reverted the morphology profiles of Q138 expressing neurons towards normal
